Results published in patent US10816552B2 (The Governing Council of the University of Toronto, priority 2014, dated 2020).
Some of these results come from one statement about several compounds together.

Key:
[1] = 1H NMR stability in d-DMSO under dry ambient atmosphere, 24 h; format: physicochemical; conditions: for degradation over 24 hours (1H NMR): 24 hr incubation
Protocol: FIGS. 2A-C show the results of ^1H NMR stability experiments for exemplary compounds 1-11. (A) Compounds 1, 2 and 7. (B) Compounds 3, 4, 5 and 6. (C) Compounds 8, 9, 10 and 11. The organotellurium compounds (˜150 μM) were dissolved in d-DMSO with 1,3,5-trioxane, the secondary internal standard. The compounds were kept in clear glass 20 mL vials. The vials were kept in a moisture free environment for 24 hours with continuous supply of ambient atmosphere dried using a series of bubblers containing phosphoric acid, potassium hydroxide and calcium sulfate. Aliquots were analyzed by ^1H NMR and the organotellurium signals and the d5-H-DMSO peaks were integrated. The ratio between the DMSO and the organotellurium protons at time 0 were taken and normalized to generate a degradation plot. Experimental error was calculated by generating triplicate integration data from each individual preliminary NMR data. This error takes into consideration of integration bias and instrument fluctuations.
The relative chemical stability of the methyl telluroethers (1-4) were quantified using ^1H NMR by integration of the CH3—Te signals with respect to a residual DMSO-d5 internal standard. Samples were prepared in a solution of DMSO-d6 and placed under a slow continuous stream of dry ambient atmosphere in a clear glass desiccator. This setup allowed the compound's stability to be monitored without interference from atmospheric water (FIG. 2).

Jurkat cells = test: Metabolic toxicity assay (WST-1) in Jurkat cells; format: cell-based; conditions: 24 hour incubation
Protocol: FIGS. 7A, B and C show a) and b) the cell proliferation rate of HCT116 cells as a function of time in the presence of various concentrations of the exemplary compound, Telox-2 (confluency analysis); and c) the metabolic toxicity of the exemplary compound, Telox-2, in Jurkat cells as measured by reduction of WST-1. Cells were incubated with Telox-2 for 24 hours prior to a 30 minute exposure to WST-1.
A 96 well clear fluorometer plate was loaded with 200 μL of Jurkat cells at a culture density of 1×10^6 cells per mL. To each well was added an appropriate amount of a stock solution of Telox/Telox2 in sterile DMSO to reach a desired concentration of Telox/Telox2 (1-1000 micromole). The concentration of DMSO was 1% in all wells. Cells were allowed to incubate for 24 h at 37° C. under normal atmosphere, after which 20 μL of a commercially available solution of WST-1 in PBS (Roche Diagnostics, product #05015944001) was added to each well (gentle pipetting evenly distributed the reagent throughout the well). Cells were allowed to incubate for a further 0.5 h at 37° C. under normal atmosphere, followed by subsequent measurement of the absorbance of each well at 450 nm using a TECAN Safire 2 plate reader. […]
To investigate the organotellurium compounds of study as potential probe moieties for MC, the metabolic toxicity of the compounds was evaluated. […]

Compound	degradation over 24 hr incubation (1H NMR), in words [1]	degradation over 24 hours (1H NMR) [1]	LD50 (metabolic toxicity) (Jurkat cells) [µM]
3-methyltellanyl-1-ethanol [Compound 1]	degraded		
C[Te]CCCO [Compound 2, 3-methyltellanyl-1-propanol]	degraded		
COC(=O)CC[Te]C [Compound 3, methyl 3-methyltellanyl-propionate]	degraded		
COC(=O)CCC[Te]C [Compound 4, methyl 4-methyltellanyl-butanoate]	degraded		
C[Te]CCCOC(=O)NCc1ccccc1 [Compound 8]		20-25%	
C[Te]CCCC(=O)NCc1ccccc1 [Compound 9, N-benzyl-4-(methyltellanyl)butanamide]		20-25%	< 200
O=C(CCC[Te]C(F)(F)F)NCc1ccccc1 [Compound 10, N-benzyl-4-((trifluoromethyl)tellanyl)butamide]			< 200
